The experiment deals with P388 leukemia ip, CD2F1 mice, survival T/C. Put plainly: NCI In Vivo Anticancer Drug Screen. Data for tumor model P388 Leukemia (intraperitoneal) in CD2F1 (CDF1) mice. Conditions: T/C endpoint: median survival time, higher T/C = longer survival.
Setting [1] is: dose: 400.0 mg/kg/injection, schedule: Q01DX001 (ip), vehicle: Klucel (hydroxypropylcellulose) (HPC).
Setting [2] is: dose: 400.0 mg/kg/injection, schedule: Q01DX005 (ip), vehicle: saline with Tween-80.
[3] abbreviates: dose: 100.0 mg/kg/injection, schedule: Q01DX009 (ip), vehicle: Klucel (hydroxypropylcellulose) (HPC).
The mark [4] stands for this setting: dose: 50.0 mg/kg/injection, schedule: Q01DX005 (ip), vehicle: saline with Tween-80.
Where [5] appears, read: dose: 100.0 mg/kg/injection, schedule: Q01DX005 (ip), vehicle: saline with Tween-80.
Where [6] appears, read: dose: 200.0 mg/kg/injection, schedule: Q01DX005 (ip), vehicle: saline with Tween-80.
Setting [7] is: dose: 100.0 mg/kg/injection, schedule: Q01DX009 (ip), vehicle: saline with Tween-80.

The structures appear in SMILES notation. The list does not hold the whole screen: it gathers tests that were run many times, whatever their T/C, doses with no T/C, and many T/C values between a quarter and a half above the control. Other doses and runs of a compound stand elsewhere. T/C gives the treated animals as a percentage of the vehicle group. Some entries give survivors of the animals treated and no T/C: the source holds a T/C of zero for them, seemingly a mark for toxic or unscored doses. Some survivor counts are full or nearly so, which does not show that the dose was tolerated: survival well below the control is almost never listed, so the zero probably covers shortened survival too. Counts of survivors are from the toxicity check (mostly the fifth day) where no day follows; animals may have died later. Schedules are NCI's codes, read here as Q, the interval in days (D) or hours (H), X, the number of doses. Some entries were tested several times; the values are given in rising order. Where survival is the endpoint, the PubChem record calls one and a half times the control and up active, and a quarter to a half above the control has no call in these data; cut-offs in other NCI protocols can differ. Some T/C values carry the count of animals alive at the toxicity check (mostly the fifth day); where none is given, no animal had died by that day.

`C=C(C)[C@H]1Cc2c(ccc3c2O[C@@H]2COc4cc(OC)c(OC)cc4[C@@H]2C3=O)O1`: the survivor count is, setting by setting: (dose: 12.5 mg/kg/injection, schedule: Q04DX003 (ip), vehicle: saline with Tween-80) 6 of 6; (dose: 25.0 mg/kg/injection, schedule: Q04DX003 (ip), vehicle: saline with Tween-80) 4 of 6; (dose: 50.0 mg/kg/injection, schedule: Q04DX003 (ip), vehicle: saline with Tween-80) 0 of 6.
As for `O=C(Nc1ccc(NC2=NCCN2)cc1)c1cccc(C(=O)Nc2ccc(NC3=NCCN3)cc2)c1`, the T/C runs as follows: (dose: 10.0 mg/kg/injection, schedule: Q01DX009 (ip), vehicle: saline with Tween-80) 127 % of control; (dose: 13.2 mg/kg/injection, schedule: Q01DX009 (ip), vehicle: saline with Tween-80) 127 % of control [5 of 6 alive]; (dose: 20.0 mg/kg/injection, schedule: Q01DX009 (ip), vehicle: saline with Tween-80) 136 and 140 % of control.
`Cc1ccc(-n2c3nc(=O)n(C)c(=O)c-3nc3ccccc32)cc1C`: the survivor count under setting [1] was 0 of 6.
With `COc1cccc(OCC(=O)O)c1OC`, under setting [1], the survivor count was 3 of 6.
Take `COc1cc(C2C(C(C)=O)=C(C)Oc3cc4c(cc32)OCO4)cc(OC)c1OC` (stereo not drawn): the survivor count (dose: 120.0 mg/kg/injection, schedule: Q01DX005 (ip), vehicle: saline with Tween-80) is listed as 6 of 6.
Turning to `CC1CCC(C(C)C)C(NC(=O)c2ccc[n+](C)c2)C1` (stereo not drawn), the survivor count (dose: 100.0 mg/kg/injection, schedule: Q04DX002 (ip), vehicle: saline) is listed as 0 of 6 and the survivor count (dose: 200.0 mg/kg/injection, schedule: Q04DX002 (ip), vehicle: saline) was 0 of 6.
Turning to `Cn1nc(-c2ccc(Cl)cc2)[n+]([O-])c2c(=O)n(C)c(=O)nc1-2`, the survivor count by setting is: (dose: 6.25 mg/kg/injection, schedule: Q04DX003 (ip), vehicle: Klucel (hydroxypropylcellulose) (HPC)) 0 of 6; (dose: 12.5 mg/kg/injection, schedule: Q04DX003 (ip), vehicle: Klucel (hydroxypropylcellulose) (HPC)) 0 of 6; (dose: 25.0 mg/kg/injection, schedule: Q04DX003 (ip), vehicle: Klucel (hydroxypropylcellulose) (HPC)) 0 of 6; (dose: 50.0 mg/kg/injection, schedule: Q04DX003 (ip), vehicle: Klucel (hydroxypropylcellulose) (HPC)) 0 of 6; (dose: 100.0 mg/kg/injection, schedule: Q04DX003 (ip), vehicle: Klucel (hydroxypropylcellulose) (HPC)) 0 of 6; (dose: 200.0 mg/kg/injection, schedule: Q04DX003 (ip), vehicle: Klucel (hydroxypropylcellulose) (HPC)) 0 of 6. In addition, for the setting “dose: 400.0 mg/kg/injection, schedule: Q04DX003 (ip), vehicle: Klucel (hydroxypropylcellulose) (HPC)”, the survivor count is recorded as 0 of 6.
Consider `O=C(O)COc1cc(Cl)c(Cl)cc1Cl`, for which the survivor count under setting [2] is on record as 0 of 6.
In the case of `CSc1ccc(SC)c2c1C(=O)c1c(SC)ccc(SC)c1C2=O`, the survivor count (dose: 200.0 mg/kg/injection, schedule: Q01DX009 (ip), vehicle: saline with Tween-80) was 5 of 6.
As for `CCOC(=O)C(C(C)=O)C(=O)C(C)(C)C` (stereo not drawn), the survivor count (dose: 50.0 mg/kg/injection, schedule: Q01DX009 (ip), vehicle: saline with Tween-80) is on record as 6 of 6.
In the case of `CC1(C)CN(c2ccccc2)N(CO)C1=O`, the survivor count runs as follows: (dose: 25.0 mg/kg/injection, schedule: Q04DX003 (ip), vehicle: saline) 0 of 6 and 3 of 6; (dose: 50.0 mg/kg/injection, schedule: Q04DX003 (ip), vehicle: saline) 0 of 6; (dose: 100.0 mg/kg/injection, schedule: Q04DX003 (ip), vehicle: saline) 0 of 6.
Turning to `OC(Cc1cnc2ccccc2c1)(c1ccccc1)c1ccccc1`, the survivor count (dose: 25.0 mg/kg/injection, schedule: Q04DX002 (ip), vehicle: saline with Tween-80) is listed as 6 of 6.
Turning to `O=c1c(N=Nc2ccc(S(=O)(=O)Nc3nccs3)cc2)c(O)n(-c2ccccc2)n1-c1ccccc1`, the survivor count runs as follows: (dose: 12.5 mg/kg/injection, schedule: Q01DX009 (ip), vehicle: Klucel (hydroxypropylcellulose) (HPC)) 6 of 6; under setting [3], 6 of 6; (dose: 200.0 mg/kg/injection, schedule: Q01DX009 (ip), vehicle: Klucel (hydroxypropylcellulose) (HPC)) 6 of 6.
Take `CCOC(=O)/C(C#N)=N/O`: the T/C (dose: 25.0 mg/kg/injection, schedule: Q01DX009 (ip), vehicle: saline) is 125 % of control.
In the case of `CC1(COC(=O)C2(C)CO2)CO1` (stereo not drawn), the T/C (dose: 100.0 mg/kg/injection, schedule: Q01DX005 (ip), vehicle: water) is 125 % of control; the T/C (dose: 200.0 mg/kg/injection, schedule: Q01DX005 (ip), vehicle: water) was 141 and 143 % of control.
As to `COc1cccc2c1C(=O)c1c(O)c3c(c(O)c1C2=O)C[C@@](O)(C(C)NCCCO)C[C@@H]3OC1CC(N)C(O)C(C)O1` (stereo partly drawn), the T/C (dose: 1.0 mg/kg/injection, schedule: Q01DX009 (ip), vehicle: water) was 144 % of control. In addition, the survivor count (dose: 32.0 mg/kg/injection, schedule: Q01DX009 (ip), vehicle: water) is 6 of 6.
As for `Cc1cc(NC(=S)SCc2ccc3c(c2)OCO3)ccc1Br`, the T/C is, setting by setting: (dose: 200.0 mg/kg/injection, schedule: Q01DX009 (ip), vehicle: Klucel (hydroxypropylcellulose) (HPC), evaluated on day 20) 127 % of control; (dose: 200.0 mg/kg/injection, schedule: Q01DX009 (ip), vehicle: Klucel (hydroxypropylcellulose) (HPC), evaluated on day 30) 127 % of control.
Consider `C/C(=N\NC(=S)N1CCN(c2ccccn2)CC1)c1nccs1`, for which the survivor count is, setting by setting: (dose: 25.0 mg/kg/injection, schedule: Q01DX005 (ip), vehicle: saline with Tween-80) 6 of 6; under setting [4], 5 of 6; under setting [5], 0 of 6; under setting [6], 0 of 6.
With `Cc1cc(NCCCCCCNc2cc(C)[n+](C)c3ccccc23)c2ccccc2[n+]1C`, the survivor count is reported as 0 of 5 under setting [4], 0 of 5 under setting [5] and 0 of 5 under setting [6].
With `ClCSCc1ccccc1`, the survivor count (dose: 100.0 mg/kg/injection, schedule: Q01DX009 (ip), vehicle: other) was 1 of 6 and the survivor count (dose: 200.0 mg/kg/injection, schedule: Q01DX009 (ip), vehicle: other) was 0 of 6.
For `C#CCOC(=O)C12CCC(C)(C)CC1C1=CCC3C4(C)CCC(O)C(C)(CO)C4CCC3(C)C1(C)CC2` (stereo not drawn), the survivor count by setting is: under setting [4], 6 of 6; under setting [5], 6 of 6; under setting [6], 6 of 6.
For `CN1P(=N)(N)N=P(c2ccccc2)(c2ccccc2)N=P1(c1ccccc1)c1ccccc1` (stereo not drawn), the survivor count runs as follows: (dose: 50.0 mg/kg/injection, schedule: Q01DX009 (ip), vehicle: Klucel (hydroxypropylcellulose) (HPC)) 6 of 6; under setting [3], 4 of 6.
For the compound `Clc1ccc2[nH]c3nc4ccccc4nc3c2c1`, under setting [7], the survivor count was 6 of 6.
`CCOC(=O)C(C(=O)OCC)=C1c2c(ccc(OC)c2OC)C=C2c3cc4c(cc3CCN21)OCO4`: the T/C (dose: 20.0 mg/kg/injection, schedule: Q01DX009 (ip), vehicle: water) was 125 % of control.
On to `CC1(C)N=C(N)N=C(N)N1c1cccc(CSc2ccccc2)c1`, for which the survivor count runs as follows: (dose: 60.0 mg/kg/injection, schedule: Q01DX005 (ip), vehicle: Klucel (hydroxypropylcellulose) (HPC)) 0 of 6; (dose: 120.0 mg/kg/injection, schedule: Q01DX005 (ip), vehicle: Klucel (hydroxypropylcellulose) (HPC)) 0 of 6; (dose: 240.0 mg/kg/injection, schedule: Q01DX005 (ip), vehicle: Klucel (hydroxypropylcellulose) (HPC)) 0 of 6.
With `O=C1C=CC(=Nc2cccc3c2C(=O)c2ccccc2-3)O1`, the survivor count is reported as 4 of 6 under setting [6] and 0 of 6 under setting [2].
Regarding `CC1CCC(n2cnc3c(=S)nc[nH]c32)O1` (stereo not drawn), the T/C under setting [7] was 135 % of control. The survivor count (dose: 400.0 mg/kg/injection, schedule: Q01DX009 (ip), vehicle: saline with Tween-80) is 5 of 6.

(Values after PubChem BioAssay AID330 (DTP/NCI, 2004).)
